Reference: patent US20190085081A1
Results are given in words; binding and its absence hold for the method and conditions named. In cells and extracts the contact can be indirect. Some results given as binding are weak or reduced against the parent protein; the word gives no strength.

Chains of the proteins cited; added tags and fusions are not shown. Lines headed by an entry give the natural chain unless they say otherwise; changes in a name come on top.
UniProt Q86T13: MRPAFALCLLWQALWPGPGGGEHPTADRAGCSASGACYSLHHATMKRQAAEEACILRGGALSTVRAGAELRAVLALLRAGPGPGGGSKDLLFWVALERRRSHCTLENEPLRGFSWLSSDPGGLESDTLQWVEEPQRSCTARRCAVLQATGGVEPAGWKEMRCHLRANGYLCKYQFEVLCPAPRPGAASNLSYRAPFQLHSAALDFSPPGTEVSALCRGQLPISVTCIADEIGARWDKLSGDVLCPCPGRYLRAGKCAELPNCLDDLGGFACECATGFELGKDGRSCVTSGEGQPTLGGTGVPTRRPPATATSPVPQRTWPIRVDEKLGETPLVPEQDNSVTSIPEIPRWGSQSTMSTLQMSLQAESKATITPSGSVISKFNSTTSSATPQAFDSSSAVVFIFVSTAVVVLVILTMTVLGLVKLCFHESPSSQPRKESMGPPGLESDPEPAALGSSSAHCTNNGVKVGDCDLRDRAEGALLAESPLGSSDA

Key:
[1] = target: T1, MMRN2 (endogenous, HUVEC lysate) (human) (UniProt Q9H8L6); assay: co-immunoprecipitation from HUVEC whole cell lysate, Western blot
T1 sequence: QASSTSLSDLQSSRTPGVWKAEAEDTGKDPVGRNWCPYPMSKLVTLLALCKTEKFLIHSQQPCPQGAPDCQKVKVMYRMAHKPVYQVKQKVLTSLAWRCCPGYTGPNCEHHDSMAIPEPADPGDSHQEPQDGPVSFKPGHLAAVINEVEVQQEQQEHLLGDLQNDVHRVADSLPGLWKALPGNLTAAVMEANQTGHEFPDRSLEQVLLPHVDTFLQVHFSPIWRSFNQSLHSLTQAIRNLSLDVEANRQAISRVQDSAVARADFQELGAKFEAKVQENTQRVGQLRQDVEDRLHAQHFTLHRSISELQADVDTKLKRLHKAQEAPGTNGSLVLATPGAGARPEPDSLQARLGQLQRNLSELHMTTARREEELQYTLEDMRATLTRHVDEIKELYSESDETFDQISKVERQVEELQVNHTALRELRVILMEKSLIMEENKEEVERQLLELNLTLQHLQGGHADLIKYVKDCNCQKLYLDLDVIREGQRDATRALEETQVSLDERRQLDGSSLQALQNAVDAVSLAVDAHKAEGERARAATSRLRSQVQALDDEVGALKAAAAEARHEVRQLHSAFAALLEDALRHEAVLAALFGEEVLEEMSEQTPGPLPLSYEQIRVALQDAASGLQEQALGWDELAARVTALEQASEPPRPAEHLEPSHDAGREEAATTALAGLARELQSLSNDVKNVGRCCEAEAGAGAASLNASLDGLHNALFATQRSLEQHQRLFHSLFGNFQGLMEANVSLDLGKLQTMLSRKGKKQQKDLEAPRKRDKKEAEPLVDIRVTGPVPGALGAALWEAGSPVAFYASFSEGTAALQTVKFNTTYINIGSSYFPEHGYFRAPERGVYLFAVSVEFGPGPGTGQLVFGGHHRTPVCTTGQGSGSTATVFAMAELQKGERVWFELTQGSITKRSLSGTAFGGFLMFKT

[2] = target: T1, MMRN2 (endogenous, HUVEC lysate) (human); assay: co-immunoprecipitation from HUVEC lysate, Western blot (FIG. 8B)
[3] = target: T1, MMRN2 (endogenous, HUVEC lysate) (human); assay: co-immunoprecipitation from HUVEC lysate

binding [1]: binds | binding [2]: binds | binding [3]: binds
Substance: human CLEC14A, full length (from UniProt Q86T13 22-490) (receptor)
